Data from US20090209578A1, “CHEMICAL COMPOUNDS” (PFIZER INC, priority 2005, published 2009).
Where two headings read alike, the source gives them in different places. Some entries share one result that the patent states for a list of compounds. At least one structure is not confirmed: it was looked up by name or label, or the drawing left a doubt.

By UniProt entry, the sequences of proteins in these tests, tags left out.
UniProt P51681, whole entry: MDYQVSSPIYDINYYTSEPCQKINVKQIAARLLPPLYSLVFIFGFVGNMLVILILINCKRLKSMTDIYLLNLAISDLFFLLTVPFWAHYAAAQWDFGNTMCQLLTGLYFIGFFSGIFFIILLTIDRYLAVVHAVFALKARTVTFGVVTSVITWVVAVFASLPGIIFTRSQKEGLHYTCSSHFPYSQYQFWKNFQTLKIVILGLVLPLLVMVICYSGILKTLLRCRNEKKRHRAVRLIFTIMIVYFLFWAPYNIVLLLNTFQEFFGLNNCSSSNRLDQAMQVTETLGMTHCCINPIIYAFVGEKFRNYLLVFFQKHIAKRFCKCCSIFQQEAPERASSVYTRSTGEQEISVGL

Target: HIV-1 fusion (gp160 induced cell-cell fusion; HeLa P4 cell line expressing CCR5 and CD4 / CHO-Tat10 cell line) (Homo sapiens, UniProt P51681)
Assay: gp160 induced cell-cell fusion assay
Type: cell-based
From the text: Biol., 60, 147-52 (1996); and/or by using the intracellular calcium mobilisation assays as described by the same authors, and/or inhibiting cell fusion following procedures disclosed in Bradley et al., J Biomol Screen 9, 516-24 (2004).
The gp160 induced cell-cell fusion assay uses a HeLa P4 cell line and a CHO-Tat10 cell line.
The HeLa P4 cell line expresses CCR5 and CD4 and has been transfected with HIV-1 LTR-β-Galactosidase. The media for this cell line is Dulbecco modified eagle's medium (D-MEM) (without L-glutamine) containing 10% foetal calf serum (FCS), 2 mM L-glutamine, penicillin/streptomycin (Pen/Strep; 100 U/mL penicillin+[…] streptomycin), and 1 μg/ml puromycin.
The CHO cell line is a Tat (transcriptional trans activator)-expressing clone from a CHO JRR17.1 cell line that has been transfected with pTat puro plasmid. The media for this cell line is rich medium for mammalian cell culture originally developed at Roswell Park Memorial Institute RPMI1640 (without L-glutamine) containing 10% FCS, 2 mM L-glutamine, 0.5 mg/ml Hygromycin B and 12 µg/ml puromycin. The CHO JRR17.1 line expresses gp160 (JRFL) and is a clone that has been selected for its ability to fuse with a CCR5/CD4 expressing cell line.
Upon cell fusion, Tat present in the CHO cell is able to transactivate the HIV-1 long terminal repeat (LTR) present in the HeLa cell leading to the expression of the β-Galactosidase enzyme. This expression is then measured using a Fluor Ace™ β-Galactosidase reporter assay kit (Bio-Rad cat no. 170-3150). This kit is a quantitative fluorescent assay that determines the level of expression of β-galactosidase using 4-methylumbelliferyl-galactopyranoside (MUG) as substrate. β-Galactosidase hydrolyses the fluorogenic substrate resulting in release of the fluorescent molecule 4-methylumbelliferone (4MU). Fluorescence of 4-methylumbelliferone is then measured on a fluorometer using an excitation wavelength of 360 nm and emission wavelength of 460 nm.
Compounds that inhibit fusion will give rise to a reduced signal and, following solubilisation in an appropriate solvent and dilution in culture medium, a dose-response curve for each compound can be used to calculate IC50 values.

[1] = list of examples with activity of less than 5 nM, read-out: activity in our cell fusion assay
[2] = statement for the examples within formula (I), read-out: IC50 in the cell fusion assay

| Compound | IC50 [1] [nM] | IC50 [2] [nM] |
| --- | --- | --- |
| COC(=O)N1CCc2nc(C)n(C3CCN(C(C)CC(NC(=O)C4CCC(F)(F)CC4)c4ccccc4)CC3)c2C1 (mixture of isomers) [Example 6] | < 5 | < 1500 |
| COC(=O)N1CCc2nc(C)n(C3CCN(C(C)CC(NC(=O)C4CCS(=O)(=O)CC4)c4ccccc4)CC3)c2C1 (mixture of isomers) [Example 8] | – | < 1500 |
| COC(=O)N1CCc2nc(C)n(C3CCN(C(C)CC(NC(=O)OC(C)C)c4ccccc4)CC3)c2C1 (mixture of isomers) [Example 14] | – | < 1500 |
| COC(=O)N1CCc2c(nc(C)n2C2CCN(C(C)CC(NC(C)=O)c3cccc(F)c3)CC2)C1 (mixture of isomers) [Example 76] | – | < 1500 |
| COC(=O)N1CCc2c(nc(C)n2C2CCN(C(C)CC(NC(=O)C(C)C)c3cccc(F)c3)CC2)C1 (mixture of isomers) [Example 77] | < 5 | < 1500 |
| COC(=O)N1CCc2c(nc(C)n2C2CCN(C(C)CC(NC(=O)C3CC3)c3cccc(F)c3)CC2)C1 (mixture of isomers) [Example 78] | < 5 | < 1500 |
| COC(=O)N1CCc2c(nc(C)n2C2CCN(C(C)CC(NC(=O)C3CCC3)c3cccc(F)c3)CC2)C1 (mixture of isomers) [Example 79] | < 5 | < 1500 |
| CC(CC(NC(=O)C1CCC(F)(F)CC1)c1ccccc1)N1CCC(n2ccnc2)CC1 (mixture of isomers) [Example 127] | < 5 | < 1500 |
| Cc1nc(C2CCN(C(C)CC(NC(=O)C3CCC(F)(F)CC3)c3ccccc3)CC2)no1 (mixture of isomers) [Example 128] | – | < 1500 |
| CCc1noc(C2CCN(C(C)CC(NC(=O)C3CCC(F)(F)CC3)c3ccccc3)CC2)n1 (mixture of isomers) [Example 129] | – | < 1500 |
| CC(C)Cc1nnc(C2CCN(C(C)CC(NC(=O)C3CCC(F)(F)CC3)c3ccccc3)CC2)o1 (mixture of isomers) [Example 130] | – | < 1500 |
| CC(C)c1nc(C2CCN(C(C)CC(NC(=O)C3CCC(F)(F)CC3)c3ccccc3)CC2)no1 (mixture of isomers) [Example 131] | – | < 1500 |
| COC(=O)N[C@@H](CC(C)N1CCC(n2c(C)nc3c2CN(C(=O)OC)CC3)CC1)c1ccccc1 (single isomer, unassigned) [Example 13A] | – | < 1500 |
| COC(=O)N[C@@H](CC(C)N1CCC(n2c(C)nc3c2CN(C(=O)OC)CC3)CC1)c1ccccc1 (single isomer, unassigned) [Example 13B] | – | < 1500 |
| Cc1nc2c(n1C1CCN(C(C)C[C@H](NC(=O)C3CCC3)c3ccccc3)CC1)CN(C(=O)C(C)C)CC2 (single isomer, unassigned) [Example 24] | < 5 | < 1500 |
| Cc1nc2c(n1C1CCN(C(C)C[C@H](NC(=O)CC(C)C)c3ccccc3)CC1)CN(C(=O)C(C)C)CC2 (single isomer, unassigned) [Example 28] | – | < 1500 |
| Cc1nc2c(n1C1CCN(C(C)C[C@H](NC(=O)C(C)C)c3ccccc3)CC1)CN(C(=O)C(C)C)CC2 (single isomer, unassigned) [Example 29] | – | < 1500 |
| Cc1nc2c(n1C1CCN(C(C)C[C@H](NC(=O)C3CCC3)c3ccccc3)CC1)CN(C(=O)C(C)C)CC2 (single isomer, unassigned) [Example 30] | – | < 1500 |
| CC(=O)N[C@@H](CC(C)N1CCC(n2c(C)nc3c2CN(C(=O)C(C)C)CC3)CC1)c1ccccc1 (single isomer, unassigned) [Example 31] | – | < 1500 |
| CCCC(=O)N[C@@H](CC(C)N1CCC(n2c(C)nc3c2CN(C(C)=O)CC3)CC1)c1cccc(F)c1 (single isomer, unassigned) [Example 47] | < 5 | < 1500 |
| CC(=O)N1CCc2nc(C)n(C3CCN(C(C)C[C@H](NC(=O)CC(C)C)c4cccc(F)c4)CC3)c2C1 (single isomer, unassigned) [Example 50] | < 5 | < 1500 |
| CC(=O)N1CCc2nc(C)n(C3CCN(C(C)C[C@H](NC(=O)C4CCC(F)(F)CC4)c4cccc(F)c4)CC3)c2C1 (single isomer, unassigned) [Example 51] | < 5 | < 1500 |

| Compound | IC50 [1] [nM] | IC50 [2] [nM] |
| --- | --- | --- |
| COC(=O)N1CCc2c(nc(C)n2C2CCN(C(C)C[C@H](NC(C)=O)c3ccccc3)CC2)C1 (single isomer, unassigned) [Example 72] | < 5 | < 1500 |
| CCOC(=O)N1CCc2c(nc(C)n2C2CCN(C(C)C[C@H](NC(=O)C(C)C)c3cccc(F)c3)CC2)C1 (single isomer, unassigned) [Example 95] | – | < 1500 |
| CCOC(=O)N1CCc2c(nc(C)n2C2CCN(C(C)C[C@H](NC(=O)C(C)C)c3cccc(F)c3)CC2)C1 (single isomer, unassigned) [Example 96] | < 5 | < 1500 |
| CCOC(=O)N1CCc2c(nc(C)n2C2CCN(C(C)C[C@H](NC(=O)C3CC3)c3cccc(F)c3)CC2)C1 (single isomer, unassigned) [Example 97] | – | < 1500 |
| CCOC(=O)N1CCc2c(nc(C)n2C2CCN(C(C)C[C@H](NC(=O)CC)c3cccc(F)c3)CC2)C1 (single isomer, unassigned) [Example 98] | – | < 1500 |
| CCOC(=O)N1CCc2c(nc(C)n2C2CCN(C(C)C[C@H](NC(=O)C3CC3)c3cccc(F)c3)CC2)C1 (single isomer, unassigned) [Example 99] | < 5 | < 1500 |
| CCOC(=O)N1CCc2c(nc(C)n2C2CCN(C(C)C[C@H](NC(=O)CC)c3cccc(F)c3)CC2)C1 (single isomer, unassigned) [Example 100] | < 5 | < 1500 |
| CC(=O)N1CCc2c(nc(C)n2C2CCN(C(C)C[C@H](NC(=O)C3CC3)c3cccc(F)c3)CC2)C1 (single isomer, unassigned) [Example 101] | – | < 1500 |
| Cc1noc(C2CCN(C(C)C[C@H](NC(=O)C3CCC(F)(F)CC3)c3ccccc3)CC2)n1 (single isomer, unassigned) [Example 109] | < 5 | < 1500 |
| Cc1cc(C(C)C)n(C2CCN(C(C)C[C@H](NC(=O)C3CCC(F)(F)CC3)c3ccccc3)CC2)n1 (single isomer, unassigned) [Example 116] | – | < 1500 |
| CC(C)c1nnnn1C1CCN(C(C)C[C@H](NC(=O)C2CCC(F)(F)CC2)c2ccccc2)CC1 (single isomer, unassigned) [Example 121] | < 5 | < 1500 |
| CC(C[C@H](NC(=O)C1CCC(F)(F)CC1)c1ccccc1)N1CCC(c2nnnn2C(C)C)CC1 (single isomer, unassigned) [Example 125] | – | < 1500 |
| COC(=O)N1CCc2nc(C)n(C3CCN(C(C)C[C@H](NC(=O)C4CCC4(F)F)c4ccccc4)CC3)c2C1 (stereo partly shown) [Example 5] | < 5 | < 1500 |
| Cc1nc2c(n1C1CCN(C(C)C[C@H](NC(=O)C3(C)CC3)c3ccccc3)CC1)CN(C(=O)C(C)C)CC2 (stereo partly shown) [Example 22] | < 5 | < 1500 |
| Cc1nc2c(n1C1CCN(C(C)C[C@H](NC(=O)C3CC(F)(F)C3)c3ccccc3)CC1)CN(C(=O)C(C)C)CC2 (stereo partly drawn) [Example 25, 3,3-Difluoro-N-{(1S)-3-[4-(5-isobutyryl-2-methyl-4,5,6,7-tetrahydro-3H-imidazo[4,5-c]pyridin-3-yl)piperidin-1-yl]-1-phenylbutyl}cyclobutanecarboxamide] | < 5 | < 1500 |
| Cc1nc2c(n1C1CCN(C(C)C[C@H](NC(=O)C3CCC3(F)F)c3ccccc3)CC1)CN(C(=O)C(C)C)CC2 (stereo partly shown) [Example 26] | – | < 1500 |
| Cc1nc2c(n1C1CCN(C(C)C[C@H](NC(=O)C3(C)CC3)c3ccccc3)CC1)CN(C(=O)C(C)C)CC2 (stereo partly shown) [Example 27] | – | < 1500 |
| CC(=O)N1CCc2nc(C)n(C3CCN(C(C)C[C@H](NC(=O)C4(C)CC4)c4cccc(F)c4)CC3)c2C1 (stereo partly shown) [Example 48] | < 5 | < 1500 |
| CC(=O)N1CCc2nc(C)n(C3CCN(C(C)C[C@H](NC(=O)C4CCC4(F)F)c4cccc(F)c4)CC3)c2C1 (stereo partly shown) [Example 49] | < 5 | < 1500 |
| CC(=O)N1CCc2nc(C)n(C3CCN(C(C)C[C@H](NC(=O)C4CCOCC4)c4cccc(F)c4)CC3)c2C1 (stereo partly shown) [Example 52] | < 5 | < 1500 |
| CC(=O)N1CCc2nc(C)n(C3CCN(C(C)C[C@H](NC(=O)C4CCC4(F)F)c4ccccc4)CC3)c2C1 (stereo partly shown) [Example 53] | < 5 | < 1500 |
| CC(=O)N1CCc2nc(C)n(C3CCN(C(C)C[C@H](NC(=O)C4CCC(F)(F)CC4)c4ccccc4)CC3)c2C1 (stereo partly shown) [Example 54] | < 5 | < 1500 |
